Measurements from article PMC5175275.
These are yes or no findings as the source states them, for the method shown. A result given as binding can be weak or reduced; the word gives no strength.

What was measured:
[1] = biological target: truncated Isl1 lacking 40 amino acids at the C-terminus (bait pGBKT7-Isl1-860bp); test: two-hybrid; retest: single bait and prey plasmids cotransformed into Yeast Gold; clones patched onto DDO/X/A and QDO/X/A medium
[2] = biological target: truncated Isl1 lacking 40 amino acids at the C-terminus (bait pGBKT7-Isl1-860bp); test: two-hybrid; library screen: Yeast Gold with bait pGBKT7-Isl1-860bp mated with yeast containing a mouse testis cDNA library; selection on DDO/X/A for 5 days at 30 °C, then on QDO/X/A

B1: protein inhibitor of activated STAT Y (PIASy), prey in pGADT7 (protein, UniProt Q9JM05 1-507)
chain: MAAELVEAKNMVMSFRVSDLQMLLGFVGRSKSGLKHELVTRALQLVQFDCSPELFKKIKELYETRYAKKSAEPGPQAPRPLDPLALHSMPRTPLSGPTVDYPVLYGKYLNGLGRLPTKTLKPEVRLVKLPFFNMLDELLKPTELVPQSAEKLQESPCIFALTPRQVEMIRNSRELQPGVKAVQVVLRICYSDTSCPQEDQYPPNIAVKVNHSYCSVPGYYPSNKPGVEPKRPCRPINLTHLMYLSSATNRITVTWGNYGKSYSVALYLVRQLTSSDLLQRLKTIGVKHPELCKALVKEKLRLDPDSEIATTGVRVSLICPLVKMRLSVPCRAETCAHLQCFDAVFYLQMNEKKPTWMCPVCDKPAAYDQLIIDGLLSKILSECEGADEIEFLAEGSWRPIRAEKEPSCSPQGPILVLGTSDANGLAPASSTPGIGSGLSGPGSAGSGAGAAGSLENGKTGADVVDLTLDSSSSSEDEDEDEDDDEDEDEGPRPKRRCPFQKGLVPAC
For B1, the binding [1] was “binds” and the binding [2] was “binds”.
